Results are given in words; binding and its absence hold for the method and conditions named. Binding seen in cells or lysates may run through a third protein. Binding calls can cover weak binding; strength is not graded here.
Tests used:
[1] = target: T1, IRS2 (CD1 mouse kidney) (mouse (endogenous in CD1 mouse kidney)) (UniProt P81122); test: co-IP; kidney tissue homogenised in CelLytic M, diluted in PBS, about 1.5 mg total protein with 30 ug agarose-conjugated anti-IRS2 antibody, overnight at 8 °C, one wash in ice-cold PBS, elution in 0.1 M glycine; eluates assayed for Rictor and IGF1R by ELISA, result as Rictor::IGF1R ratio (AU); animals: Dahl rats on high-salt diet with saline or nephrilin, CD1 mice sham or rhabdomyolysis (glycerol) with saline or nephrilin
T1 sequence: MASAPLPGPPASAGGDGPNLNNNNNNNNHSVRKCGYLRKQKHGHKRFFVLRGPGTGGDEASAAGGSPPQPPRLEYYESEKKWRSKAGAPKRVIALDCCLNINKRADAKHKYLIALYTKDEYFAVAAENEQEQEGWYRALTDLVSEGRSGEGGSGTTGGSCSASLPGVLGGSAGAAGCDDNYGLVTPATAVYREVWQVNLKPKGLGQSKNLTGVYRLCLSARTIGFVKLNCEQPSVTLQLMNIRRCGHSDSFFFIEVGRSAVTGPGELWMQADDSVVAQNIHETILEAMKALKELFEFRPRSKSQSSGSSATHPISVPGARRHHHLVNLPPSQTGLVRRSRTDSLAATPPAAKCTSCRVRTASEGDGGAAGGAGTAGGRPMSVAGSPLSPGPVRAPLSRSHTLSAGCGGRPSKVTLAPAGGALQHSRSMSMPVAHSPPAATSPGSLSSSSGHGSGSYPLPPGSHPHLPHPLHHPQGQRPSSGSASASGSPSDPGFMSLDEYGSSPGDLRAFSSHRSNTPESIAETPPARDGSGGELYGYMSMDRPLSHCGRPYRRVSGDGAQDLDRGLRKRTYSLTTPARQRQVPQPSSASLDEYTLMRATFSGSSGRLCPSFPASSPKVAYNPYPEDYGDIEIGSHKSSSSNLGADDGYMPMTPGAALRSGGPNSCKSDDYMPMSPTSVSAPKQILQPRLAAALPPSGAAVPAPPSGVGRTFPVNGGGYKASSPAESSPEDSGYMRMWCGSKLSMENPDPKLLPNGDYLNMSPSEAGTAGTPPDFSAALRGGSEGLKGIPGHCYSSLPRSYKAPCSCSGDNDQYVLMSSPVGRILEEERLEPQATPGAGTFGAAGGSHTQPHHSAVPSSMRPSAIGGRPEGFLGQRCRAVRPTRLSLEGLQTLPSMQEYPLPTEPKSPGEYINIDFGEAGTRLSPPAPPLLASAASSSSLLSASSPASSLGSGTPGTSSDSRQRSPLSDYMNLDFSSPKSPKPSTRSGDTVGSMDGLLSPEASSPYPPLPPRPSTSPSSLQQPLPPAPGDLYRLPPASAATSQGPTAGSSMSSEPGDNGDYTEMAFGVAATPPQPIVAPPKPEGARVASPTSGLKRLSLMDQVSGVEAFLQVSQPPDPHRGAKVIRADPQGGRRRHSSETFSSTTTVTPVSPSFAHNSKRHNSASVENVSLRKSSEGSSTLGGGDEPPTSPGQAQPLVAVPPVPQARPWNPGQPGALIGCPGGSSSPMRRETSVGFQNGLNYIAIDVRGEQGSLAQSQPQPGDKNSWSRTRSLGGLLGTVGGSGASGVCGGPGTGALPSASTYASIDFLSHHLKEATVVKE

[2] = target: T2, IRS2 (Dahl rat kidney) (rat (endogenous in Dahl rat kidney)) (UniProt F1MAL5); test: as above
T2 sequence: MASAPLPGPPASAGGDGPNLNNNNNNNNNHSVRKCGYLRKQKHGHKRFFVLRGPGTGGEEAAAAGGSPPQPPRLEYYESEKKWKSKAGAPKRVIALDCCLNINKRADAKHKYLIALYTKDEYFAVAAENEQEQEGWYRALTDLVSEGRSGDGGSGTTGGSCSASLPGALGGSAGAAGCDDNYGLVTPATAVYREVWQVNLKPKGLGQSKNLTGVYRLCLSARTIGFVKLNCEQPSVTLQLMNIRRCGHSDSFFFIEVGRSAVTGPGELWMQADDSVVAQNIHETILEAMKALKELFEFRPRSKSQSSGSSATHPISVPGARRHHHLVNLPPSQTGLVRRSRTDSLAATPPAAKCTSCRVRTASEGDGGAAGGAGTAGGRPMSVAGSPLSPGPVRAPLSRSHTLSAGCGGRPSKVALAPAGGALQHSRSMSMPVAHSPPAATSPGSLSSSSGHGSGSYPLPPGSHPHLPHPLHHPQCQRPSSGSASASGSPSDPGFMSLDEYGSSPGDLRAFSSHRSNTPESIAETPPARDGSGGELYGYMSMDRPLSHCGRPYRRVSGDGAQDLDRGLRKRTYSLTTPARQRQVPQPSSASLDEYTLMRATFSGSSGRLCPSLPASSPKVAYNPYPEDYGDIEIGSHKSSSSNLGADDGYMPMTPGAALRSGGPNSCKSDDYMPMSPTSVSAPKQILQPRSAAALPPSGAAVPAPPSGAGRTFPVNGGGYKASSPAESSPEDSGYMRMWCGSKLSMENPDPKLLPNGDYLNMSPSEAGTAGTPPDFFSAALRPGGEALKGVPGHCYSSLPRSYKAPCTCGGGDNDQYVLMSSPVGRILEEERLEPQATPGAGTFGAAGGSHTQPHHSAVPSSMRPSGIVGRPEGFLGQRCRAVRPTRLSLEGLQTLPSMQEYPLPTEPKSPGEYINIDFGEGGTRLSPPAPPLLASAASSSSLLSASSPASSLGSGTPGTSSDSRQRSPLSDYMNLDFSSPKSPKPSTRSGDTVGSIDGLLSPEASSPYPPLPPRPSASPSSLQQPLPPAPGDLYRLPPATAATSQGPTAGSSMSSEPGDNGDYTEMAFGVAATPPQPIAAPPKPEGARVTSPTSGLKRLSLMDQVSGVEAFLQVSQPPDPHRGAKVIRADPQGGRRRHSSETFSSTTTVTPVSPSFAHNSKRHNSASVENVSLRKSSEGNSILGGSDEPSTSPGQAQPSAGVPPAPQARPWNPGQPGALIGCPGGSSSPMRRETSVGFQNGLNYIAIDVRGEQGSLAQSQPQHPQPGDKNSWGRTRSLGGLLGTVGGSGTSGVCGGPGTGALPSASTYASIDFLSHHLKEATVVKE

| binding [1] | binding [2] | Substance |
| --- | --- | --- |
| binds | – | IGF1R (CD1 mouse kidney) (receptor) |
| – | binds | IGF1R (Dahl rat kidney) (receptor) |
| – | binds | Rictor (Dahl rat kidney) |

— publication PMC3496474
